For one molecule, binding results are on record in PMC8634136 (The EMBO Journal, 2021).

The assay has as its target T1, Tof1 (S. cerevisiae) (UniProt P53840).
T1 sequence: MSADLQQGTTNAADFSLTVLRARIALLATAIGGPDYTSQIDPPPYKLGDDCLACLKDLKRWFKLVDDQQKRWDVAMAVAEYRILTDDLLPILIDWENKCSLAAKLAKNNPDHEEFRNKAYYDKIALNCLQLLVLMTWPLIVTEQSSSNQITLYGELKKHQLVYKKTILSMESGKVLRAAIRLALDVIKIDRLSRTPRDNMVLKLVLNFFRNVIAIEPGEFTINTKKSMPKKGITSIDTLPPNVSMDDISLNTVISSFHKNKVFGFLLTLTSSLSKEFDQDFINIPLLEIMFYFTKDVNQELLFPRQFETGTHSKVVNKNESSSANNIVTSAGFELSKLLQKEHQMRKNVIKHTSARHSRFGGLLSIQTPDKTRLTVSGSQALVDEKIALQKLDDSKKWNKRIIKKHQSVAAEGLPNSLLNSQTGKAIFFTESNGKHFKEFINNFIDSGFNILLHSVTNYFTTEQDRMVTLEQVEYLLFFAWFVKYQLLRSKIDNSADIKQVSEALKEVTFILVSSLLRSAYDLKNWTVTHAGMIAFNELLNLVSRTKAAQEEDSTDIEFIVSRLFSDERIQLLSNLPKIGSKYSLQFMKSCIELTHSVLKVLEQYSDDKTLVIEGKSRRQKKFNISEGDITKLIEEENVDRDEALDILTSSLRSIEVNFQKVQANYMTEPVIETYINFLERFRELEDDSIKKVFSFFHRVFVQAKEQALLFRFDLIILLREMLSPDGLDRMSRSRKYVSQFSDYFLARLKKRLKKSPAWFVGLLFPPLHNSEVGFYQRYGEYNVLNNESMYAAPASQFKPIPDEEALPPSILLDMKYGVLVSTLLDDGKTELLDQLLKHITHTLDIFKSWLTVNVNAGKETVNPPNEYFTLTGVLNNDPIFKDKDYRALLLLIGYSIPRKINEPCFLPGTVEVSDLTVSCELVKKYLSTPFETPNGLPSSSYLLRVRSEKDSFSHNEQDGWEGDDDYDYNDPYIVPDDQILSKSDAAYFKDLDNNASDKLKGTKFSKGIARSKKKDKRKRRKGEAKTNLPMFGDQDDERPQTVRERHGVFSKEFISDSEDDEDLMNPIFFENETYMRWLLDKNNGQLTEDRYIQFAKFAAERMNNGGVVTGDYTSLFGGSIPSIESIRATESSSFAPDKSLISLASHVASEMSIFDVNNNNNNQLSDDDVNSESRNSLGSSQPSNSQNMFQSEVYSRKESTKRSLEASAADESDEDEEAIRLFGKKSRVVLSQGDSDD
In words: cryo-EM structure; re-inspection of the authors' published S. cerevisiae replisome map; AlphaFold prediction of Mrc1 residues 325-335 docked into unmodelled density on Tof1.

Results are given in words; binding and its absence hold for the method and conditions named. Some results given as binding are weak or reduced against the parent protein; the word gives no strength.

B1: Mrc1 (protein, UniProt P25588 1-1096)
chain: MDDALHALSSLTAKKRTTTYKKVAVPILDENDNTNGNGPNDIDNPPELTGNGFLFANATLNRVKNRLEGKKAPEQNHNNGKDRSENSLPTQLISNLYDGGEELEKSEVKDNSYSEKNVSSSFTQTQRIPVSIQQDKVFNVPIHSVNDGKPTQLIKEDGLVNETSQALKTPLTTGRPGATQRIDSSGATSQTQPIKSIEPQSQIITTSSNHSNALSPKIPIIPTELIGTSPLFQSIQNRGPDTQMDVPPQTAHDEDKTQAIGIPQATHQEQKTQIDTVAQTLQDEVPHTLKIREIQSELASEDSKREKARNVEYKKPQKPIPTKKFFSKESFLADFDDSSSNEDDDIKLENAHPKPVQNDDELHENKSVELNLTDETRINEKRVPLLSSYANNLKREIDSSKCITLDLDSDSDEYGDDDMDSIKLSKDESVLPISQLSKATILNLKARLSKQNQKLSQRPNKSKDPKVDHNVLLNTLRKASRKQILDHQKEVIETKGLKLEDMAKEKEIVENLLEQEILRNKRIRQKEKRREKLEENDFQLNAHDSGSDSGSESSGFALSGNEIADYESSGSENDNRRESDSEKEDDEIILKQKKSHHVKHIINESDSDTEVEAKPKEKADESLPKRIAINLGHYGDNIGEDTDKFQETNVLDTQNIEEVMAERNTIENEVKDDVYVNEEADEAIRRQLIDKEKLQLKQKEKEHEAKIKELKKRGVTNFFEMEAEESEDEWHGIGGADGEGSDDYDSDLEKMIDDYSKNNFNPHEIREMLAAENKEMDIKMINKILYDIKNGGFRNKRAKNSLELELSDDDEDDVLQQYRLKRRELMRKRRLEIGDDAKLVKNPKSSAFFESMVEDIIEYKNPFGAEEEYNLDITSTATDLDTQDNSINVGDNTGNNEQKPVDQKNKKVIISEDFVQKSLSFLKSNNYEDFETDKELSRIQHGNDEAIEDLYTLKQNSSIKSFTNSQTDSTTSKTVNTIIDLEKRPEDEDEVENGDTSLVGVFKHPSIIKSFASRTDINDKFKEGNKTVKILKSYKTVGSSKASITYMGKTRKLIAPKRKTEGSHRYHHDHHNKKMKMKTKTKSNKLFESGQDSFDN
Turning to B1, the binding result is on record as “binds”.
